{"source": "PubChem BioAssay AID652243 – Drosophila RNAi Screening Center | 2013", "aim": "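Fly regulators of androgen-dependent reporter output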 (primary screen)", "cells": "Drosophila S2R+ cells", "knock-down reagent": "long dsRNA against Drosophila genes", "duration": "72 h (48 h, then 24 h hormone)", "challenge": "synthetic androgen R1881 at 10 nM for 24 h", "detection": "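Firefly light from an androgen-responsive reporter and Renilla control light per well, raw and unnormalised, for each of two replicates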", "direction": "firefly reporter light: higher = more light from androgen-responsive reporter; Renilla control light: higher = more constitutive control signal (cell number, transfection)", "call rule": "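Hit when the log firefly-to-Renilla ratio dropped or increased by a fixed fold versus the mean of GFP or LacZ controls across duplicate plates; lowering cut given as 1.5 and as 3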", "calls": "active = hit: reporter lowered or raised; inactive = no hit", "note": "The deposit covers about 24,000 reagents; below is a random part of those with a known target gene and a result. Over the whole deposit, 246 (1%) were called active. 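Plates not normalised; calls are printed but the firefly/Renilla ratio behind them is not deposited; fold cut for lowering reported inconsistently.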 Raw values are not corrected between plates. A plus sign joins genes that one reagent is predicted to hit. Not stated in the record: the amount of reagent."}
{"Gene": "mh (GeneID 32480)", "amplicon": "DRSC20168", "firefly reporter light, replicate 1": 2.86e5, "firefly reporter light, replicate 2": 3.64e5, "Renilla control light, replicate 1": 1.82e6, "Renilla control light, replicate 2": 2.45e6, "Outcome": "inactive"}
{"Gene": "ATbp (GeneID 5740592)", "amplicon": "DRSC20906", "firefly reporter light, replicate 1": 1.01e5, "firefly reporter light, replicate 2": 39182, "Renilla control light, replicate 1": 2.15e5, "Renilla control light, replicate 2": 2.02e5, "Outcome": "inactive"}
{"Gene": "ATbp (GeneID 5740592)", "amplicon": "DRSC29661", "firefly reporter light, replicate 1": 3.91e5, "firefly reporter light, replicate 2": 4.11e5, "Renilla control light, replicate 1": 8.55e5, "Renilla control light, replicate 2": 8.55e5, "Outcome": "inactive"}
{"Gene": "MTA1-like (GeneID 40693)", "amplicon": "DRSC12382", "firefly reporter light, replicate 1": 88765, "firefly reporter light, replicate 2": 1.15e5, "Renilla control light, replicate 1": 2.48e6, "Renilla control light, replicate 2": 2.62e6, "Outcome": "inactive"}
{"Gene": "MTA1-like (GeneID 40693)", "amplicon": "DRSC22022", "firefly reporter light, replicate 1": 4.88e5, "firefly reporter light, replicate 2": 4.47e5, "Renilla control light, replicate 1": 2.03e6, "Renilla control light, replicate 2": 2.06e6, "Outcome": "active"}
{"Gene": "MTA1-like (GeneID 40693)", "amplicon": "DRSC23683", "firefly reporter light, replicate 1": 4.93e5, "firefly reporter light, replicate 2": 4.73e5, "Renilla control light, replicate 1": 5.18e5, "Renilla control light, replicate 2": 5.15e5, "Outcome": "inactive"}
{"Gene": "MTA1-like (GeneID 40693)", "amplicon": "DRSC24944", "firefly reporter light, replicate 1": 7.71e5, "firefly reporter light, replicate 2": 6.68e5, "Renilla control light, replicate 1": 5.75e5, "Renilla control light, replicate 2": 5.90e5, "Outcome": "inactive"}
{"Gene": "PGRP-LD + Pmi", "amplicon": "DRSC10512", "firefly reporter light, replicate 1": 9.29e5, "firefly reporter light, replicate 2": 7.15e5, "Renilla control light, replicate 1": 2.31e6, "Renilla control light, replicate 2": 2.44e6, "Outcome": "inactive"}
{"Gene": "PGRP-LD + Pmi", "amplicon": "DRSC10513", "firefly reporter light, replicate 1": 8.63e5, "firefly reporter light, replicate 2": 9.87e5, "Renilla control light, replicate 1": 1.49e6, "Renilla control light, replicate 2": 2.02e6, "Outcome": "inactive"}
{"Gene": "nAChRbeta2 (GeneID 42920)", "amplicon": "DRSC17010", "firefly reporter light, replicate 1": 94700, "firefly reporter light, replicate 2": 89854, "Renilla control light, replicate 1": 5.78e5, "Renilla control light, replicate 2": 5.39e5, "Outcome": "inactive"}
{"Gene": "CG17593 (GeneID 33573)", "amplicon": "DRSC00504", "firefly reporter light, replicate 1": 1.29e5, "firefly reporter light, replicate 2": 83456, "Renilla control light, replicate 1": 8.21e5, "Renilla control light, replicate 2": 6.87e5, "Outcome": "inactive"}
{"Gene": "CG17593 (GeneID 33573)", "amplicon": "DRSC27490", "firefly reporter light, replicate 1": 2.68e5, "firefly reporter light, replicate 2": 3.05e5, "Renilla control light, replicate 1": 7.58e5, "Renilla control light, replicate 2": 9.40e5, "Outcome": "inactive"}

Not a retest: an excerpt of the list.
{"Gene": "mh (GeneID 32480)", "amplicon": "DRSC20168", "firefly reporter light, replicate 1": 2.86e5, "firefly reporter light, replicate 2": 3.64e5, "Renilla control light, replicate 1": 1.82e6, "Renilla control light, replicate 2": 2.45e6, "Outcome": "inactive"}
{"Gene": "ATbp (GeneID 5740592)", "amplicon": "DRSC20906", "firefly reporter light, replicate 1": 1.01e5, "firefly reporter light, replicate 2": 39182, "Renilla control light, replicate 1": 2.15e5, "Renilla control light, replicate 2": 2.02e5, "Outcome": "inactive"}

The listing continues:
{"Gene": "Nup37 (GeneID 43040)", "amplicon": "DRSC14419", "firefly reporter light, replicate 1": 1.82e5, "firefly reporter light, replicate 2": 2.60e5, "Renilla control light, replicate 1": 2.20e6, "Renilla control light, replicate 2": 2.36e6, "Outcome": "inactive"}
{"Gene": "glob1 (GeneID 41930)", "amplicon": "DRSC16959", "firefly reporter light, replicate 1": 1.33e5, "firefly reporter light, replicate 2": 1.72e5, "Renilla control light, replicate 1": 8.16e5, "Renilla control light, replicate 2": 1.03e6, "Outcome": "inactive"}
{"Gene": "Pkn (GeneID 35950)", "amplicon": "DRSC06810", "firefly reporter light, replicate 1": 3.09e5, "firefly reporter light, replicate 2": 2.79e5, "Renilla control light, replicate 1": 2.16e6, "Renilla control light, replicate 2": 2.13e6, "Outcome": "inactive"}
{"Gene": "Pkn (GeneID 35950)", "amplicon": "DRSC25936", "firefly reporter light, replicate 1": 4.58e5, "firefly reporter light, replicate 2": 4.87e5, "Renilla control light, replicate 1": 9.10e5, "Renilla control light, replicate 2": 9.52e5, "Outcome": "inactive"}
{"Gene": "Pkn (GeneID 35950)", "amplicon": "DRSC37055", "Outcome": "inactive"}
{"Gene": "Nplp1 (GeneID 38003)", "amplicon": "DRSC04370", "firefly reporter light, replicate 1": 1.25e6, "firefly reporter light, replicate 2": 5.81e5, "Renilla control light, replicate 1": 1.71e6, "Renilla control light, replicate 2": 1.04e6, "Outcome": "inactive"}
{"Gene": "NdufA3 (GeneID 50405)", "amplicon": "DRSC18431", "firefly reporter light, replicate 1": 4.07e5, "firefly reporter light, replicate 2": 4.19e5, "Renilla control light, replicate 1": 2.19e6, "Renilla control light, replicate 2": 2.74e6, "Outcome": "inactive"}
{"Gene": "Spt3 (GeneID 41461)", "amplicon": "DRSC15465", "firefly reporter light, replicate 1": 1.16e5, "firefly reporter light, replicate 2": 1.02e5, "Renilla control light, replicate 1": 1.81e6, "Renilla control light, replicate 2": 1.32e6, "Outcome": "inactive"}
{"Gene": "Spt3 (GeneID 41461)", "amplicon": "DRSC25502", "firefly reporter light, replicate 1": 2.88e5, "firefly reporter light, replicate 2": 2.31e5, "Renilla control light, replicate 1": 7.11e5, "Renilla control light, replicate 2": 5.19e5, "Outcome": "inactive"}
{"Gene": "CG10555 (GeneID 31771)", "amplicon": "DRSC23202", "firefly reporter light, replicate 1": 9.31e5, "firefly reporter light, replicate 2": 8.38e5, "Renilla control light, replicate 1": 1.10e6, "Renilla control light, replicate 2": 1.23e6, "Outcome": "inactive"}
{"Gene": "CG10555 (GeneID 31771)", "amplicon": "DRSC27738", "firefly reporter light, replicate 1": 2.75e5, "firefly reporter light, replicate 2": 2.74e5, "Renilla control light, replicate 1": 6.81e5, "Renilla control light, replicate 2": 8.25e5, "Outcome": "inactive"}
{"Gene": "CG32214 (GeneID 317919)", "amplicon": "DRSC09613", "firefly reporter light, replicate 1": 5.08e5, "firefly reporter light, replicate 2": 4.95e5, "Renilla control light, replicate 1": 9.96e5, "Renilla control light, replicate 2": 9.97e5, "Outcome": "inactive"}
{"Gene": "CG34194 (GeneID 5740534)", "amplicon": "DRSC05666", "firefly reporter light, replicate 1": 1.78e5, "firefly reporter light, replicate 2": 2.10e5, "Renilla control light, replicate 1": 2.86e5, "Renilla control light, replicate 2": 3.34e5, "Outcome": "inactive"}
{"Gene": "inv (GeneID 36239)", "amplicon": "DRSC07633", "firefly reporter light, replicate 1": 2.40e5, "firefly reporter light, replicate 2": 2.26e5, "Renilla control light, replicate 1": 9.35e5, "Renilla control light, replicate 2": 1.46e6, "Outcome": "inactive"}
{"Gene": "inv (GeneID 36239)", "amplicon": "DRSC29580", "firefly reporter light, replicate 1": 3.90e5, "firefly reporter light, replicate 2": 6.92e5, "Renilla control light, replicate 1": 6.25e5, "Renilla control light, replicate 2": 6.25e5, "Outcome": "inactive"}
